For at least one compound, name, drawing or mass did not settle the structure.
Assays:
Assay type in all cases: cell-based
FOXO3 = experiment: Immunofluorescent staining of FOXO3 localization in FOXO3.A3-transduced breast cancer cell lines; conditions: treated cells vs untreated (predominantly cytoplasm)
[1] = tested on: FOXO3 activity in MCF7-FOXO3.A3 cells; experiment: Biological validation of computational FOXO3 model in MCF7-FOXO3.A3 cells (Affymetrix mRNA); conditions: for FOXO activity predicted by the FOXO model: MCF7-FOXO3.A3 cells, 16 hours, 10 M LY294002, 10 ng/ml doxycycline
[2] = tested on: FOXO3 activity in MDA-MB-231-FOXO3.A3 cells; experiment: Biological validation of computational FOXO3 model in MDA-MB-231-FOXO3.A3 cells (Affymetrix mRNA); conditions: doxycycline 16 hours

| Compound | FOXO3 protein localization (FOXO3) | FOXO activity predicted by the FOXO model [1] | FOXO activity score compared to ectopic FOXO activation ([1]; MCF7 cells, LY294002 vs ectopic FOXO activation) | FOXO activity predicted by the FOXO model [2] |
| --- | --- | --- | --- | --- |
| O=c1cc(N2CCOCC2)oc2c(-c3ccccc3)cccc12 [LY294002] | dominant nuclear localization | high activity | less active |  |
| C[C@H]1c2cccc(O)c2C(=O)C2=C(O)[C@]3(O)C(=O)C(C(N)=O)=C(O)[C@@H](N(C)C)[C@@H]3[C@@H](O)[C@@H]21 [doxycycline] | dominant nuclear localization | high FOXO activity |  | high FOXO activity |

From patent US20190376142A1, “METHOD TO DISTINGUISH TUMOR SUPRESSIVE FOXO ACTIVITY FROM OXIDATIVE STRESS” (KONINKLIJKE PHILIPS N.V., priority 2016, published 2019)
